Reference: article PMC11260088 (Proceedings of the National Academy of Sciences of the …, 2024)

Columns and labels:
Assay in all cases: MIC, broth microdilution
[1] = system: S. aureus USA300 (MRSA); assay type: cell-based, Staphylococcus aureus; settings: LB + 0.3 mM ZnSO4, 37 °C, 18 h, median of min. triplicates
[2] = system: B. subtilis 168; assay type: cell-based; settings: LB + 0.3 mM ZnSO4, 37 °C, 18 h, median of min. triplicates
[3] = system: S. pneumoniae 153; assay type: cell-based; settings: footnote: LB + 0.3 mM ZnSO4, method: TSB + 0.3 M ZnSO4 + 5% lysed horse blood, 37 °C, 5% CO2, 24 h
Procedure, shortened: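 Colonies from fresh blood agar were suspended directly in ZnSO4-supplemented TSB to OD600 0.5, then diluted to 10^6 CFU/mL in the same broth with 5% lysed horse blood. Compound two-fold dilutions were made in that medium. Incubation ran 24 h at 37 °C under 5% CO2 with shaking. MIC was read visually as the median of at least triplicates.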

With CN[C@H](CC(C)C)C(=O)N[C@H]1C(=O)N[C@@H](CC(N)=O)C(=O)N[C@H]2C(=O)N[C@H]3C(=O)N[C@H](C(=O)N[C@H](C(=O)O)c4cc(O)cc(O)c4-c4cc3ccc4O)[C@H](O)c3ccc(c(Cl)c3)Oc3cc2cc(c3O[C@@H]2O[C@H](CO)[C@@H](O)[C@H](O)[C@H]2O[C@H]2C[C@](C)(N)[C@H](O)[C@H](C)O2)Oc2ccc(cc2Cl)[C@H]1O [Vancomycin] the “MIC S. aureus USA300 (MRSA)” value [1] was 2 µg/mL, the “MIC B. subtilis 168” value [2] was 0.25 µg/mL and the “MIC S. pneumoniae 153” value [3] was 0.5 µg/mL.
